For 34 targets, log2 fold change results are on record in the supplement of paper PMC10849652.

By UniProt entry, the sequences of proteins in these tests, tags left out. Where a name states a change or a piece, a line headed by the entry shows the natural chain unless it says otherwise.
UniProt O75822, whole entry, looked up: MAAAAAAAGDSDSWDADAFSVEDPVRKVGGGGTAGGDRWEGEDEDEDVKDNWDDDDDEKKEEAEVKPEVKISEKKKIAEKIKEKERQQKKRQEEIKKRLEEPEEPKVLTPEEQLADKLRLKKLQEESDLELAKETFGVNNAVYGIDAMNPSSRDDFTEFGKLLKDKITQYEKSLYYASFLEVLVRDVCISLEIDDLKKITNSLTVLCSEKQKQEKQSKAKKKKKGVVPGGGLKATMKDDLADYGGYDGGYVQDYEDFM
UniProt Q8N6R0: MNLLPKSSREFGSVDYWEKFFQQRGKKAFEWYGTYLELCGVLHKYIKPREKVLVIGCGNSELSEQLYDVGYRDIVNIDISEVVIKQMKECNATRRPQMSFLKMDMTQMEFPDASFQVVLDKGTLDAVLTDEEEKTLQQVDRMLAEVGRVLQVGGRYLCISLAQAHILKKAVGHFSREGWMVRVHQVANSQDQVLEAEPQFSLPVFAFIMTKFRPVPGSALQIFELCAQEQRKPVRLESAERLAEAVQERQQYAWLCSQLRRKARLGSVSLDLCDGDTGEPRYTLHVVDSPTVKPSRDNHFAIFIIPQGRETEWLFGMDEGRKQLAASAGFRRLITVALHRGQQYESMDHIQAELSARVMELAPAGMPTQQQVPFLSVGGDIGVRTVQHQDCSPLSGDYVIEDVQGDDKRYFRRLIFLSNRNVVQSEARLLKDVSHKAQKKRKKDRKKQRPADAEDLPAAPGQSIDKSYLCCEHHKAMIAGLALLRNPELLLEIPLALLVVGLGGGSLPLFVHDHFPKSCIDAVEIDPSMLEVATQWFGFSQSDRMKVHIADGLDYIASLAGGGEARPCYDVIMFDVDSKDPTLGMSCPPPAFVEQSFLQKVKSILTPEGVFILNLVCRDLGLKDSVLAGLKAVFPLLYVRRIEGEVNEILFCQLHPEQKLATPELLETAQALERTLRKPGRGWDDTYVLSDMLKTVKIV
UniProt Q9UI10, whole entry, looked up: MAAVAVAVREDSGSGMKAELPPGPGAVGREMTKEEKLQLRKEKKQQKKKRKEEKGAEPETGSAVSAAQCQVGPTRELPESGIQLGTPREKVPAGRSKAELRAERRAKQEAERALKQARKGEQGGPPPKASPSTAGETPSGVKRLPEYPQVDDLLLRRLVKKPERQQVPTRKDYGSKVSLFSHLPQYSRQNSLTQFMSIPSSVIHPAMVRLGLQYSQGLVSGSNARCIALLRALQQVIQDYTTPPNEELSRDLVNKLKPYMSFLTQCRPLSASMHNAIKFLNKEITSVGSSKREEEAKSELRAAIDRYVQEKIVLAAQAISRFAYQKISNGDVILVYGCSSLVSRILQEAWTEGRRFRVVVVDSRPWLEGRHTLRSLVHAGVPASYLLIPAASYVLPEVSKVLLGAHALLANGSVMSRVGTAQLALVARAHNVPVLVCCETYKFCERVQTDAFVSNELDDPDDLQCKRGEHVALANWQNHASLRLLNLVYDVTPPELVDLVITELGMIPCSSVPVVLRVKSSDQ
UniProt P55199: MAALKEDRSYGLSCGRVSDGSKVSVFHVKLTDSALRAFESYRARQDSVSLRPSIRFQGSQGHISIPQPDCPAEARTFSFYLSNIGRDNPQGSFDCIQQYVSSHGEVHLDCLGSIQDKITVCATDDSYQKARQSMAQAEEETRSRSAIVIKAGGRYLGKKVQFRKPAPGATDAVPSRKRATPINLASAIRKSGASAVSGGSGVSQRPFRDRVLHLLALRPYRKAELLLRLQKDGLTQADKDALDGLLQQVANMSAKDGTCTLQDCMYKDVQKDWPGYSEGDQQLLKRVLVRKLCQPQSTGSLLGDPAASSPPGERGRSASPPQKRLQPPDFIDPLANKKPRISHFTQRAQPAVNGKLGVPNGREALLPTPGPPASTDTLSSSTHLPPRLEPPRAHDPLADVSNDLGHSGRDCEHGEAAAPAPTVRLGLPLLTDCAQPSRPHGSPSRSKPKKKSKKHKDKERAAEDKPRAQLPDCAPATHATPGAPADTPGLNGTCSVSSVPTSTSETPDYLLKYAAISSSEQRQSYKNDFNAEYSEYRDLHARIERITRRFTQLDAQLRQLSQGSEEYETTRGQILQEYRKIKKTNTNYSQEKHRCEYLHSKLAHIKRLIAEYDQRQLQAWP
UniProt P26641, whole entry, looked up: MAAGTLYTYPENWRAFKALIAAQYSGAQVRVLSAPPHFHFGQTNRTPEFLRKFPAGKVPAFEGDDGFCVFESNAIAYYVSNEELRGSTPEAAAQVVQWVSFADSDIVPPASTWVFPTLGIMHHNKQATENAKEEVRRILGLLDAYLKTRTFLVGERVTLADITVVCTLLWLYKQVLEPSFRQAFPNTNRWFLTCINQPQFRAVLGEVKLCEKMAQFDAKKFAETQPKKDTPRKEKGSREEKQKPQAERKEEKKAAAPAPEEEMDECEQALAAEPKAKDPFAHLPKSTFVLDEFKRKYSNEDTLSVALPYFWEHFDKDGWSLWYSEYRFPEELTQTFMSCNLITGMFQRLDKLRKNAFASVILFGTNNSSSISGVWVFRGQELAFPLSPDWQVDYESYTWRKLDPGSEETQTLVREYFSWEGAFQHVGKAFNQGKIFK
UniProt Q9H777: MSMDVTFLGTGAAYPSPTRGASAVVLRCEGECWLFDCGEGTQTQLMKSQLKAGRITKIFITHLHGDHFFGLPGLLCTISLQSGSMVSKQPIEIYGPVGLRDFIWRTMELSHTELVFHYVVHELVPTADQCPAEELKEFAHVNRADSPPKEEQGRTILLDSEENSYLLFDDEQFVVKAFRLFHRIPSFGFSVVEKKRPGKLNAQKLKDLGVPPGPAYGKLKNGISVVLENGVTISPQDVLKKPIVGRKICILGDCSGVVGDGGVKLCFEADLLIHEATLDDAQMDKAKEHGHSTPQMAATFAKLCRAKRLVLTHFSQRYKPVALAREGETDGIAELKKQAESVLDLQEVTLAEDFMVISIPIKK
UniProt O60573: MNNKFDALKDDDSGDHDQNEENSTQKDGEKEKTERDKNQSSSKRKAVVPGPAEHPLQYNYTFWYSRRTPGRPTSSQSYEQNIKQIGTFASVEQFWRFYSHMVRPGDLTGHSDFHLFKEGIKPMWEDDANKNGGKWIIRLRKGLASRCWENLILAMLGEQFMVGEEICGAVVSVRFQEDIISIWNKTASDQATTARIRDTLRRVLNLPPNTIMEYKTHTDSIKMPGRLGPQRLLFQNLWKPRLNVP
UniProt Q9GZT9: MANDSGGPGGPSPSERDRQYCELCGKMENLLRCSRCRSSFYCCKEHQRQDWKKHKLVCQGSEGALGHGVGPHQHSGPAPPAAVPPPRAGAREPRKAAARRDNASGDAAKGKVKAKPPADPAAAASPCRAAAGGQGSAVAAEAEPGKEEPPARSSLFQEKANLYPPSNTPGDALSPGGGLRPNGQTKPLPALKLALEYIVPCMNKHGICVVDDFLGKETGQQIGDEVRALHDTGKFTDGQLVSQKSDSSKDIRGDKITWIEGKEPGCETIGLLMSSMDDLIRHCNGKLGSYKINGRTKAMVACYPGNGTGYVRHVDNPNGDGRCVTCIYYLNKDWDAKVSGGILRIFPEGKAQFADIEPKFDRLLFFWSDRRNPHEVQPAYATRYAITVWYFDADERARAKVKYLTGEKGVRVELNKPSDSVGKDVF
UniProt O75354: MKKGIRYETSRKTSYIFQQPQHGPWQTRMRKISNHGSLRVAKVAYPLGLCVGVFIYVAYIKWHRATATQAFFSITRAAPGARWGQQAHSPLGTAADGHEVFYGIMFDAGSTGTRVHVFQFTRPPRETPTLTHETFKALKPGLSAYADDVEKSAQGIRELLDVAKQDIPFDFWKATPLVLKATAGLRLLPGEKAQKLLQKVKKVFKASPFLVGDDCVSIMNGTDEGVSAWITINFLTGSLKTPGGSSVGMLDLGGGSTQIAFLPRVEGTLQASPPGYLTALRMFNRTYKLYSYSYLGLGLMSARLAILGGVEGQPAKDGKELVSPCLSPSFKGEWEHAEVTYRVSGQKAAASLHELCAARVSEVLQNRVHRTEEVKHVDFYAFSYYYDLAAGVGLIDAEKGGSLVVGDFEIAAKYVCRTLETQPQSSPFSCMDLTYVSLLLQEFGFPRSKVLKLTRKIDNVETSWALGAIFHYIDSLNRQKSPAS
UniProt A1L3X0: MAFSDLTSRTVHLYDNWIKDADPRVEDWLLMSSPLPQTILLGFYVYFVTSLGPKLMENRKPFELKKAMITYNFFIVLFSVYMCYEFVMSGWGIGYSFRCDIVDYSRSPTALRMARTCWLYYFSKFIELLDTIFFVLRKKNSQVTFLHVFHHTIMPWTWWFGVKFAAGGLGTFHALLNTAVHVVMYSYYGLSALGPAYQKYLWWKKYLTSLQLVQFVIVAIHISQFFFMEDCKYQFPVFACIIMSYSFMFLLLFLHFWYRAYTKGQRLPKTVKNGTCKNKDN
UniProt Q5VUJ9: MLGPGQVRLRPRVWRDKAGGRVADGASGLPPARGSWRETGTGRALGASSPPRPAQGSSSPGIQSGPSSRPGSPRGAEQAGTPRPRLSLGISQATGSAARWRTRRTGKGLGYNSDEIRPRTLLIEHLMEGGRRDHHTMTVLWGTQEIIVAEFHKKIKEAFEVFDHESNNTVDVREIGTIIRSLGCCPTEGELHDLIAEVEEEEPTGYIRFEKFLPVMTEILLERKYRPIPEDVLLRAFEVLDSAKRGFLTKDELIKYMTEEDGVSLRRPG
UniProt Q9NZJ5: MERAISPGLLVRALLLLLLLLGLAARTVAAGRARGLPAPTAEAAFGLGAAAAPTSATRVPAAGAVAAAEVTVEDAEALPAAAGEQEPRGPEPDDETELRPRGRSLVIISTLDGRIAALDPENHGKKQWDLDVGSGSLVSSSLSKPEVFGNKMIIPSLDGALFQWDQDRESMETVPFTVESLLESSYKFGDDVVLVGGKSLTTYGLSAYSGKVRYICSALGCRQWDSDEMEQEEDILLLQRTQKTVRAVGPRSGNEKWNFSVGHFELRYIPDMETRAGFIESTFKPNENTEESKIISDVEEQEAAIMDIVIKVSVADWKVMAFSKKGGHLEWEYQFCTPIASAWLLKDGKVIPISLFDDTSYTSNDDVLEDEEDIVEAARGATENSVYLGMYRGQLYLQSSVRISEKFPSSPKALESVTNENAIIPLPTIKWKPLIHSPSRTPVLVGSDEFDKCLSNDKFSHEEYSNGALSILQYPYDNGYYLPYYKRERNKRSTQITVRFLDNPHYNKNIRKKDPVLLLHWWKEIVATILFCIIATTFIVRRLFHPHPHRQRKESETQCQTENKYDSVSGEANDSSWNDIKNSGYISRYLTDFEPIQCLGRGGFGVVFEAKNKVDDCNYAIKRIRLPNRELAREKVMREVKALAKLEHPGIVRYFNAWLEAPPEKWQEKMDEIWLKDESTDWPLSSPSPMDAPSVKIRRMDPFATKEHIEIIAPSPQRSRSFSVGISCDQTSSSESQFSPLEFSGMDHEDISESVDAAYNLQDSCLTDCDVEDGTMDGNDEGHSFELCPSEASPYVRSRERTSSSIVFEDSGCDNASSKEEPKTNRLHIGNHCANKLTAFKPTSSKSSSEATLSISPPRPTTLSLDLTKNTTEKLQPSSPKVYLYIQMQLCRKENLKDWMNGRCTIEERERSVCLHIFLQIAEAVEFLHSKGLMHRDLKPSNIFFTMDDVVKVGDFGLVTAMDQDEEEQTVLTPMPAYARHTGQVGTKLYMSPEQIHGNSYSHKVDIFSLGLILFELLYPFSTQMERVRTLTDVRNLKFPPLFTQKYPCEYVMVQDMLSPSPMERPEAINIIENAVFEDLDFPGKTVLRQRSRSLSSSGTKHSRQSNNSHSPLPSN
UniProt O14638, whole entry, looked up: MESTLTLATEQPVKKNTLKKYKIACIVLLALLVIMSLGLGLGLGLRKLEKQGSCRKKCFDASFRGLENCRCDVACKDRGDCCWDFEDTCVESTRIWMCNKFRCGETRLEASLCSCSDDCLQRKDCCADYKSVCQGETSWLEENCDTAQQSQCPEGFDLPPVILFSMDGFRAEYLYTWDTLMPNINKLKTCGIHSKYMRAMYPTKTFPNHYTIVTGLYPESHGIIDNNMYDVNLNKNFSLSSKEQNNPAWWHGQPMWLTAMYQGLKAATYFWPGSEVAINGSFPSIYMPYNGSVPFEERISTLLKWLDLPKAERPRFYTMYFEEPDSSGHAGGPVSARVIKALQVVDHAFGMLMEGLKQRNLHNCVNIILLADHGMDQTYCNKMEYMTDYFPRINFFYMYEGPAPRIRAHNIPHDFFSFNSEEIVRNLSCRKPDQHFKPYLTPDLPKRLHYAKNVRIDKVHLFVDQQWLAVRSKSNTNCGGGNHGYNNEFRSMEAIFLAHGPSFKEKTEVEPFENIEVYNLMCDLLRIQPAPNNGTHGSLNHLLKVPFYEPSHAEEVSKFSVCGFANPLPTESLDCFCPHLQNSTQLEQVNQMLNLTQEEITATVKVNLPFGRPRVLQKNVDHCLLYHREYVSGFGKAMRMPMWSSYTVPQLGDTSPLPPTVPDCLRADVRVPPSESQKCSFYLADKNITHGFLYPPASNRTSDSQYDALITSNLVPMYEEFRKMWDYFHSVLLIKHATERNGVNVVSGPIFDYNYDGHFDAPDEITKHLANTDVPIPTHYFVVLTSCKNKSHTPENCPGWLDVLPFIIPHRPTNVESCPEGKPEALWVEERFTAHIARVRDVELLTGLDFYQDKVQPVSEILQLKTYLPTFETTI

The list shows a part of the results.

Compound in one test: C#Cc1cccc(Nc2ncnc3cc(OCCOC)c(OCCOC)cc23)c1 [erlotinib]
Briefly: log2 fold change, soluble protein after heating vs DMSO (PISA); higher = thermal stabilisation; K562 cells, 10 uM, 30 min; active = over 0.2 and 3.5 SD of the protein, either way, in both replicates (recomputed). The method in brief:
(§1)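 K562 cells at 2×10^6 cells/mL were treated with 10 μM compound for 30 min. Aliquots were heated for 3 min across 48°C-58°C, pooled, and extracted in PBS with 0.5% NP-40 at 4°C; soluble protein was the supernatant after 21,000xg for 90 min. Soluble protein was quantified by TMTpro 16plex LC-MS/MS with channel sums equalised, and reported as log2 fold change in thermal stability against DMSO controls, with values from duplicates.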
In the case of EIF4G3 isoform 3 (UniProt O43432), the log2 fold change was inactive: 0.047.

In the case of EIF3J isoform 2 (UniProt O75822), the log2 fold change is inactive: 0.094.

With EEF1AKNMT (UniProt Q8N6R0), the log2 fold change was inactive: 0.063.

As to EIF2AK1 (UniProt Q9BQI3), the log2 fold change was inactive: -0.002.

Regarding EIF2B4 (UniProt Q9UI10), the log2 fold change is inactive: -0.063.

As for EIF3G (UniProt K7ER90), the log2 fold change is inactive: 0.057.

As for EED, A0A5F9ZI63, the log2 fold change is inactive: 0.056.

Take EIF1B (UniProt O60739): the log2 fold change was inactive: -0.09.

EOGT (UniProt Q5NDL2): the log2 fold change is inactive: -0.058.

As to EIF2AK2 (UniProt P19525), the log2 fold change was inactive: -0.021.

ELOVL1 (UniProt Q9BW60): the log2 fold change was inactive: -0.022.

On to EIF2S3 (UniProt P41091), for which the log2 fold change was inactive: -0.028.

Consider EGR1 (UniProt P18146), for which the log2 fold change was inactive: -0.105.

Turning to ELL (UniProt P55199), the log2 fold change was inactive: 0.033.

For the target EEF1G isoform 2 (UniProt P26641), the log2 fold change was inactive: -0.051.

On to ELAC1 (UniProt Q9H777), for which the log2 fold change was inactive: 0.035.

Take EIF4E2 (UniProt O60573): the log2 fold change is inactive: 0.013.

On to EFCAB14 (UniProt O75071), for which the log2 fold change was inactive: 0.051.

On to EGLN1 (UniProt Q9GZT9), for which the log2 fold change is inactive: 0.035.

Take ENTPD6 (UniProt O75354): the log2 fold change is inactive: 0.014.

On to EFEMP1 (UniProt Q12805), for which the log2 fold change is inactive: -0.279.

Consider ELOVL7 (UniProt A1L3X0), for which the log2 fold change is inactive: -0.008.

Take EFL1 (UniProt Q7Z2Z2): the log2 fold change is inactive: 0.

On to EFCAB2 (UniProt Q5VUJ9), for which the log2 fold change was inactive: 0.356.

On to EPB41, A0A2R8Y6D0, for which the log2 fold change is inactive: -0.163.

On to EIF2AK3 (UniProt Q9NZJ5), for which the log2 fold change is inactive: 0.056.

As for EML5 isoform 5 (UniProt Q05BV3), the log2 fold change was inactive: -0.111.

As for ELMO1 (UniProt Q92556), the log2 fold change is inactive: 0.111.

As to ENPP3 (UniProt O14638), the log2 fold change is inactive: -0.115.

For the target EIF3J (UniProt O75822), the log2 fold change was inactive: 0.056.

In the case of ELOVL5 isoform 2 (UniProt Q9NYP7), the log2 fold change was inactive: 0.03.

For the target EIF4H isoform 2 (UniProt Q15056), the log2 fold change was inactive: -0.156.

With EIF4ENIF1 isoform 3 (UniProt Q9NRA8), the log2 fold change was inactive: 0.051.

Consider ELF1 (UniProt P32519), for which the log2 fold change is inactive: -0.016.

Compound in another test: C/C(=N\NC(=O)C1=CC(=CC=C1)S(=O)(=O)N2CCOCC2)/C3=C(C=CC(=C3)Cl)O
Described as above. The method in brief:
as §1
As to EIF4G3 isoform 3 (UniProt O43432), the log2 fold change was inactive: 0.01.

On to EIF3J isoform 2 (UniProt O75822), for which the log2 fold change is inactive: -0.093.

EEF1AKNMT (UniProt Q8N6R0): the log2 fold change was inactive: 0.15.

In the case of EIF2AK1 (UniProt Q9BQI3), the log2 fold change is inactive: 0.006.

On to EIF2B4 (UniProt Q9UI10), for which the log2 fold change is inactive: -0.106.

For EIF3G (UniProt K7ER90), the log2 fold change is inactive: 0.005.

Consider EED, A0A5F9ZI63, for which the log2 fold change was inactive: 0.049.

In the case of EOGT (UniProt Q5NDL2), the log2 fold change is inactive: -0.018.

Turning to EIF2AK2 (UniProt P19525), the log2 fold change was inactive: -0.24.

On to ELOVL1 (UniProt Q9BW60), for which the log2 fold change was inactive: 0.019.

Take EIF2S3 (UniProt P41091): the log2 fold change was inactive: -0.041.

As for EGR1 (UniProt P18146), the log2 fold change is inactive: 0.001.

As for ELL (UniProt P55199), the log2 fold change is inactive: 0.116.

Consider EEF1G isoform 2 (UniProt P26641), for which the log2 fold change is inactive: 0.062.

In the case of ELAC1 (UniProt Q9H777), the log2 fold change was inactive: -0.068.

Turning to EIF4E2 (UniProt O60573), the log2 fold change is inactive: 0.056.

Consider EFCAB14 (UniProt O75071), for which the log2 fold change was inactive: -0.053.

EGLN1 (UniProt Q9GZT9): the log2 fold change is active: -0.355.

For the target ENTPD6 (UniProt O75354), the log2 fold change is inactive: -0.035.

In the case of EFEMP1 (UniProt Q12805), the log2 fold change is inactive: -0.097.

For the target ELOVL7 (UniProt A1L3X0), the log2 fold change is inactive: 0.062.

Turning to EFL1 (UniProt Q7Z2Z2), the log2 fold change was inactive: 0.051.

With EFCAB2 (UniProt Q5VUJ9), the log2 fold change is inactive: -0.166.

Turning to EPB41, A0A2R8Y6D0, the log2 fold change was inactive: 0.034.

Regarding EIF2AK3 (UniProt Q9NZJ5), the log2 fold change is inactive: 0.022.

Consider EML5 isoform 5 (UniProt Q05BV3), for which the log2 fold change is inactive: 0.222.

As for ENPP3 (UniProt O14638), the log2 fold change was inactive: -0.083.

Turning to EIF3J (UniProt O75822), the log2 fold change was inactive: -0.004.

For ELOVL5 isoform 2 (UniProt Q9NYP7), the log2 fold change was inactive: 0.117.

As for EIF4H isoform 2 (UniProt Q15056), the log2 fold change is inactive: 0.09.

Turning to EIF4ENIF1 isoform 3 (UniProt Q9NRA8), the log2 fold change was inactive: 0.061.

ELF1 (UniProt P32519): the log2 fold change is inactive: -0.052.

Compound in the next test: C1=CC(=C(C=C1Cl)C2=NC3=NC=CN=C3C(=N2)NC4=CC=NC=C4)F
The description is as above. The method in brief:
as §1
With EIF3J isoform 2 (UniProt O75822), the log2 fold change is inactive: 0.029.

In the case of EEF1AKNMT (UniProt Q8N6R0), the log2 fold change was inactive: 0.008.

As to EIF2AK1 (UniProt Q9BQI3), the log2 fold change is inactive: -0.042.

In the case of EIF2B4 (UniProt Q9UI10), the log2 fold change is inactive: -0.041.

Take EIF3G (UniProt K7ER90): the log2 fold change was inactive: -0.004.

Regarding EED, A0A5F9ZI63, the log2 fold change is inactive: -0.04.

EIF1B (UniProt O60739): the log2 fold change was inactive: 0.073.

For EOGT (UniProt Q5NDL2), the log2 fold change was inactive: -0.032.

Take EIF2AK2 (UniProt P19525): the log2 fold change is inactive: -0.425.

In the case of ELOVL1 (UniProt Q9BW60), the log2 fold change is inactive: -0.01.

With EIF2S3 (UniProt P41091), the log2 fold change is inactive: -0.18.

As to EGR1 (UniProt P18146), the log2 fold change was inactive: 0.071.

As to ELL (UniProt P55199), the log2 fold change is inactive: 0.064.

As to EEF1G isoform 2 (UniProt P26641), the log2 fold change is inactive: -0.009.

Consider ELAC1 (UniProt Q9H777), for which the log2 fold change is inactive: 0.04.

As for EIF4E2 (UniProt O60573), the log2 fold change was inactive: -0.026.

As for EFCAB14 (UniProt O75071), the log2 fold change is inactive: 0.013.

For EGLN1 (UniProt Q9GZT9), the log2 fold change is inactive: 0.075.

Consider ENTPD6 (UniProt O75354), for which the log2 fold change was inactive: 0.086.

In the case of ELOVL7 (UniProt A1L3X0), the log2 fold change is inactive: -0.065.

On to EFL1 (UniProt Q7Z2Z2), for which the log2 fold change is inactive: 0.027.

As for EIF2AK3 (UniProt Q9NZJ5), the log2 fold change is inactive: 0.091.

Regarding ELMO1 (UniProt Q92556), the log2 fold change was inactive: -0.079.

For the target ENPP3 (UniProt O14638), the log2 fold change is inactive: 0.003.

Turning to EIF3J (UniProt O75822), the log2 fold change was inactive: 0.068.

ELOVL5 isoform 2 (UniProt Q9NYP7): the log2 fold change is inactive: -0.087.

For the target EIF4ENIF1 isoform 3 (UniProt Q9NRA8), the log2 fold change is inactive: 0.092.

As for ELF1 (UniProt P32519), the log2 fold change is inactive: 0.068.
